Values from PubChem BioAssay AID1224830 (NIAID, 2016).
Test: 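Host factors that control LPS-induced TNF expression in human macrophages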 (primary screen). Cell system: human THP-1 monocytic leukaemia cells, TNF dual-luciferase reporter clone, PMA-differentiated to macrophage-like cells. Reagents: siRNA pool against human genes, 50 nM. Timing: LPS for 4 h, given about 3 days after siRNA transfection. Conditions: bacterial LPS (TLR4 ligand), 10 ng/ml. Detection: 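Ratio of firefly to renilla light, scaled to the plate median and expressed as a robust z-score per replicate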. Reading the numbers: TNF reporter robust z-score: higher = stronger TNF reporter response to LPS. Hit rule: 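Each well counts as active if its z-score is over 2.8 or under -1.5; controls are left without a call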.
The deposit covers about 18,000 reagents; this is a random part of them. About 2,900 of them (16%) count as active. 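Calls are made per well; low scores hint the gene aids the LPS response, high scores that it dampens it.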 Unmarked entries are inactive. Repeated entries: four replicate wells of each siRNA pool. No sequences are given here.

target | TNF reporter robust z-score
DIPK1B | -1.92 (active)
DIPK1B | -1.38
OBI1 | -1.05
OBI1 | 1.33
OBI1 | 0.47
OBI1 | 2.11
TRAF6 | -0.68
TRAF6 | 0.62
TRAF6 | -0.52
TRAF6 | 0.65
RPL24 | 0.35
RPL24 | -1.22
RPL24 | -1.12
RPL24 | -1.51 (active)
KDM4D | 0.68
KDM4D | 1.35
KDM4D | 0.64
KDM4D | 1.52
RAB11FIP1 | 1.43
RAB11FIP1 | 2.55
RAB11FIP1 | 1.5
RAB11FIP1 | 2.25
RASGEF1A | 1.68
RASGEF1A | 5.02 (active)
RASGEF1A | 3.29 (active)
RASGEF1A | 1.01
PTPRF | -0.12
PTPRF | -0.28
PTPRF | -0.92
PTPRF | -0.75
TUBGCP3 | 1.44
TUBGCP3 | 0.37
TUBGCP3 | 0.08
TUBGCP3 | 0.61
ABHD2 | 0.36
ABHD2 | 0.93
ABHD2 | 0.47
ABHD2 | 1.28
UBE2F | 0.45
UBE2F | -0.34
UBE2F | 0.24
UBE2F | 0.01
ZC3H10 | -0.55
ZC3H10 | 0.31
ZC3H10 | 1.37
ZC3H10 | 0.39
GHDC | -0.48
GHDC | -0.21
GHDC | -1.37
GHDC | -0.08
TTC7A | -1.31
TTC7A | 1.97
TTC7A | 1.47
TTC7A | 0.85
IZUMO1R | -0.12
IZUMO1R | -0.17
IZUMO1R | 0.42
IZUMO1R | 0.95
PRR22 | -0.19
PRR22 | -0.77
PRR22 | -0.94
PRR22 | -1.42
PLAGL2 | -1.23
PLAGL2 | -0.95
PLAGL2 | -1.04
PLAGL2 | -0.82
GPAT2 | -0.32
GPAT2 | -0.89
GPAT2 | -1.31
GPAT2 | -0.83
RNASEL | 2.68
RNASEL | 1.54
RNASEL | 6.36 (active)
RNASEL | 3.51 (active)
ACP4 | -1.08
ACP4 | 0.05
ACP4 | -0.49
BCAN | 3.43 (active)
BCAN | 1.67
BCAN | -0.62
BCAN | 0.39
AKAP10 | 0.44
AKAP10 | -0.38
AKAP10 | -0.1
AKAP10 | 0.54
MRGPRG | -0.79
MRGPRG | -0.81
MRGPRG | -0.77
MRGPRG | -0.88
DYNLT2 | 0.16
DYNLT2 | 1.84
DYNLT2 | 0.74
DYNLT2 | 0.41
EFCAB12 | -0.65
EFCAB12 | 2.17
EFCAB12 | -0.67
EFCAB12 | 0.15
SLAMF7 | -0.67
SLAMF7 | 0.52
SLAMF7 | -0.27
SLAMF7 | -0.3
HSPBAP1 | 0.56
HSPBAP1 | 0.89
HSPBAP1 | 0.65
HSPBAP1 | -0.12
OR13F1 | 1.33
OR13F1 | 2.84 (active)
OR13F1 | -1.43
OR13F1 | 0.03
TIMM50 | -0.59
TIMM50 | 1.62
TIMM50 | -0.23
TIMM50 | -0.84

Called active, of those listed so far:
target | TNF reporter robust z-score
DIPK1B | -1.92 (active)
RPL24 | -1.51 (active)
RASGEF1A | 5.02 (active)
RASGEF1A | 3.29 (active)
RNASEL | 6.36 (active)
RNASEL | 3.51 (active)
BCAN | 3.43 (active)
OR13F1 | 2.84 (active)
